# Laboratory results published in PMC8755082, “Recognition of G-quadruplex RNA by a crucial RNA methyltransferase component, METTL14”.
# For at least one entry, the source does not settle the construct or the ends of the probe.
# Tested on: METTL3 MTD (MTD3) + METTL14 MTD-RGG (MTD14-RGG)
# Assay: EMSA
# Conditions: Li+ buffer (G4 not formed); EMSA: 2.5 nM RNA, 10 mM potassium (or lithium) phosphate pH 7.5, 25 uM ZnCl2, 10 uM SAM, 0.5 mM DTT, 0.005% Tween 20, 2.5% ficoll, 50 ng/uL yeast tRNA, 4 C, 1 h; recombinant protein; protein details: Strep-tag II,His6; label: 5' FAM
sequence,measurement,value
UUAGGGUUAGGGUUUUAGACAUUUUUUAGGGUUAGGG [G4 RNA1],Kd,131 nM
